According to article doi:10.1101/2023.10.01.560355:
Like-named read-outs stand apart in the source and are kept apart here. No constants are given. Whether binding was seen depends on the method and setting. Binding seen in cells or lysates may run through a third protein. Some results given as binding are weak or reduced against the parent protein; the word gives no strength. For some of these results: Where a sequence is shown, tags or fusion partners need not be part of it.

Chains of the proteins cited; added tags and fusions are not shown.
UniProt Q9WTX6: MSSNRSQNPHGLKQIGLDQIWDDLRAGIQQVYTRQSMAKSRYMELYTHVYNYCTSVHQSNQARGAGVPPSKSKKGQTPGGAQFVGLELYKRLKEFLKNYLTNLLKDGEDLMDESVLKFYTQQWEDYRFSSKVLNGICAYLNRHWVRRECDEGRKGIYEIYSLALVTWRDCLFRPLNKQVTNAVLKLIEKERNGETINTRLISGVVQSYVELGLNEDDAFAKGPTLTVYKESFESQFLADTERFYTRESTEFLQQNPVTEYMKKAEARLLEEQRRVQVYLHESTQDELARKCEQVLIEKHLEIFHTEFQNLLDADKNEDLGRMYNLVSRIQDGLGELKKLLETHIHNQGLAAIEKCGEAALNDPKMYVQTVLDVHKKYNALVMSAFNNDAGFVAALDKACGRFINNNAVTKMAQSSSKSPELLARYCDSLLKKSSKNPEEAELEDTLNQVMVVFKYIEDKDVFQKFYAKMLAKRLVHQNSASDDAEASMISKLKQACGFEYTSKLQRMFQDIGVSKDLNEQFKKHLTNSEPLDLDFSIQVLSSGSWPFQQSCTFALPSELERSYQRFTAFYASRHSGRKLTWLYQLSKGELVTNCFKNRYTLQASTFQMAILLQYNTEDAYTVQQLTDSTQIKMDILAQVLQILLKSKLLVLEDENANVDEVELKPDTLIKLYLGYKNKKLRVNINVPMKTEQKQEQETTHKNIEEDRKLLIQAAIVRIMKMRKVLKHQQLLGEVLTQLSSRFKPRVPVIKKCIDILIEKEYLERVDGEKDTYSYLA
UniProt Q9JMB7: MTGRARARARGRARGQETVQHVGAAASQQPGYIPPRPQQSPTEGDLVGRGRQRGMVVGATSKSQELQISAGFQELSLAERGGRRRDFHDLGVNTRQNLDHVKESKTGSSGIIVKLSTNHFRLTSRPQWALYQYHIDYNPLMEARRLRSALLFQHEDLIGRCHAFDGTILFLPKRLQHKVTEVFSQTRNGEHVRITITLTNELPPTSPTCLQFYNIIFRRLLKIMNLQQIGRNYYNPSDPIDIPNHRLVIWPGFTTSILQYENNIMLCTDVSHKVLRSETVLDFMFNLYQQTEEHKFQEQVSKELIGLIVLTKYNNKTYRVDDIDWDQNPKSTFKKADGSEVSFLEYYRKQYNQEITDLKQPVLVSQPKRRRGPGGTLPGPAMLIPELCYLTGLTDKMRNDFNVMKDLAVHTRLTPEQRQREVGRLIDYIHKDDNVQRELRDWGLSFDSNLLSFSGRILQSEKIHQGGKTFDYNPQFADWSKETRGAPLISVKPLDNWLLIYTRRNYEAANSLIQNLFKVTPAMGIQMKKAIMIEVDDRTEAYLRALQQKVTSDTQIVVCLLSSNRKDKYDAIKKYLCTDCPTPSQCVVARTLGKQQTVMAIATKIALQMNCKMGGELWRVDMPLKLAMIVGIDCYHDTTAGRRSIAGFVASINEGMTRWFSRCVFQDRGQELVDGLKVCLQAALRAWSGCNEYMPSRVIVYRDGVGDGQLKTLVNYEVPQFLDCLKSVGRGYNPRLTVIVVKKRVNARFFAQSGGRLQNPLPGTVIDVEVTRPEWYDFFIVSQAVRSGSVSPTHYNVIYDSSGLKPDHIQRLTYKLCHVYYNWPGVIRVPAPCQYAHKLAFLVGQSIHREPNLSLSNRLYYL
UniProt Q62093: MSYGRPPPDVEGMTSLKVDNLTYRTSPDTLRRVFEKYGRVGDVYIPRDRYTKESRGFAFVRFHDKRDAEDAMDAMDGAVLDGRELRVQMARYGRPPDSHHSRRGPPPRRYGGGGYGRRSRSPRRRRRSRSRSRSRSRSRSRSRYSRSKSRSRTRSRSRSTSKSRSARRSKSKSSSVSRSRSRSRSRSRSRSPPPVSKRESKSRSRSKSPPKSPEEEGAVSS

How the values were obtained:
Test in all cases: co-IP
[1] = target: T1, FBXO24-HA (F-Box Protein 24 with a C-terminal HA epitope tag, from Fbxo24-HA-tagged transgenic mice) (mouse) (UniProt Q9D417)
T1 sequence: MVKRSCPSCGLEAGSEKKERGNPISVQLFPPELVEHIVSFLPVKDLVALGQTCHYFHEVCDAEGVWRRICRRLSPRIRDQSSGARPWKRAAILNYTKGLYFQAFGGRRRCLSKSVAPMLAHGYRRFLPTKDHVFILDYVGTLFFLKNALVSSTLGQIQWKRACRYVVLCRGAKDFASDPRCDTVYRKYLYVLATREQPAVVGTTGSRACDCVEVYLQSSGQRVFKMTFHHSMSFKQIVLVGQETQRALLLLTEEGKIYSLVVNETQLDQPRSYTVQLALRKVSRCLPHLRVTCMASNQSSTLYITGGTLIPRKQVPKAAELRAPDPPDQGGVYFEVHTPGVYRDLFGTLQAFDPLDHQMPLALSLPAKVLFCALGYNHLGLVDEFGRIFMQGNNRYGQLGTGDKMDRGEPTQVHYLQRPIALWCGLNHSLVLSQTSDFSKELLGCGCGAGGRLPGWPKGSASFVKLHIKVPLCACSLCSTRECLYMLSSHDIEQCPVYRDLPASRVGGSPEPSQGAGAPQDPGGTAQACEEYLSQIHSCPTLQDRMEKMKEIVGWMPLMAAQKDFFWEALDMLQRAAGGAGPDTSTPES

FBXO24-mCherry = target: T2, FBXO24-mCherry (UniProt Q9D417)
T2 sequence: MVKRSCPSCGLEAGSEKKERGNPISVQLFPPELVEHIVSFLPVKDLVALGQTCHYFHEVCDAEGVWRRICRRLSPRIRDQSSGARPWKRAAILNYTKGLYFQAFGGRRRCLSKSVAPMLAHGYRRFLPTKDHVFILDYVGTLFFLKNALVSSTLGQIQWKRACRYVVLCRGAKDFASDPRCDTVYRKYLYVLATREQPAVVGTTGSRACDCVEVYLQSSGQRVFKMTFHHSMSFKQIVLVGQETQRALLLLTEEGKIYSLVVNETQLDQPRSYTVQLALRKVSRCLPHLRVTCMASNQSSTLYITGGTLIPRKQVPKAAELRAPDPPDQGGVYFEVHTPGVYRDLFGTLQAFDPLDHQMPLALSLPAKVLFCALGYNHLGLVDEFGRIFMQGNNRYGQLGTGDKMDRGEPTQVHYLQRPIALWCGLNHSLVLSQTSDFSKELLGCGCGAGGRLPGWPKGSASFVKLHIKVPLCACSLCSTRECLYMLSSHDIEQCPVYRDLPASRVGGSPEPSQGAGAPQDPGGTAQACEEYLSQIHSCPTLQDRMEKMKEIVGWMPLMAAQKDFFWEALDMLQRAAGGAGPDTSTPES

[2] = target: T3, truncated FBXO24 containing only the F-box domain (UniProt Q9D417)
T3 sequence: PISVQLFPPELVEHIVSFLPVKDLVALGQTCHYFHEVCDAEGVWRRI

[3] = target: T1, FBXO24-HA (F-Box Protein 24 with a C-terminal HA epitope tag, from Fbxo24-HA-tagged transgenic mice) (mouse); remark: listed apart in the source

CUL1 (from UniProt Q9WTX6 1-776)
binding [1]: binds | binding (FBXO24-mCherry): binds

MIWI (from UniProt Q9JMB7 1-862)
binding [1]: binds | binding (FBXO24-mCherry): binds

MIWI-myc (from UniProt Q9JMB7 1-862)
binding [2]: binds

SRSF2 (from UniProt Q62093 1-221)
binding [1]: binds

B1: SRSF3 (protein, UniProt P84104 1-164)
chain: MHRDSCPLDCKVYVGNLGNNGNKTELERAFGYYGPLRSVWVARNPPGFAFVEFEDPRDAADAVRELDGRTLCGCRVRVELSNGEKRSRNRGPPPSWGRRPRDDYRRRSPPPRRRSPRRRSFSRSRSRSLSRDRRRERSLSRERNHKPSRSFSRSRSRSRSNERK
binding [3]: binds
